Laboratory results taken from doi:10.1101/2020.04.22.055343.
No constants are given. Whether binding was seen depends on the method and setting. In cells and extracts the contact can be indirect. Some entries that bind do so weakly or less than the wild type.

Sequences of proteins named here, by UniProt entry; tags and fusion partners are left off. A change or cut given only in a name is not applied to a line headed by its entry.
UniProt P35637: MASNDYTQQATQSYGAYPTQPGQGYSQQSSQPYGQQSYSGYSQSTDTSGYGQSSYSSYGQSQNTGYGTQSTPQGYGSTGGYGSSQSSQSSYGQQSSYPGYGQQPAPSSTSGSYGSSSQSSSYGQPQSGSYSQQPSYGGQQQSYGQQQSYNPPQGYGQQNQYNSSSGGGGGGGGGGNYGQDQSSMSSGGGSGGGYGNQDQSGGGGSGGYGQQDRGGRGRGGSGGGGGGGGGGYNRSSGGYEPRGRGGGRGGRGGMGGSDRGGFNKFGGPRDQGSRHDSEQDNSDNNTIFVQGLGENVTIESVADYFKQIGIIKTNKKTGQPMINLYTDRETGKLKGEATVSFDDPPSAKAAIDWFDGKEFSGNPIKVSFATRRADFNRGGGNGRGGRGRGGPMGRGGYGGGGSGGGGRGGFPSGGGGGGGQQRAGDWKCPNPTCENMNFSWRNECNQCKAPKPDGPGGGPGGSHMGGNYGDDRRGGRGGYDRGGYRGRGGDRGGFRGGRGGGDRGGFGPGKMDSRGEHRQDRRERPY
UniProt P28340: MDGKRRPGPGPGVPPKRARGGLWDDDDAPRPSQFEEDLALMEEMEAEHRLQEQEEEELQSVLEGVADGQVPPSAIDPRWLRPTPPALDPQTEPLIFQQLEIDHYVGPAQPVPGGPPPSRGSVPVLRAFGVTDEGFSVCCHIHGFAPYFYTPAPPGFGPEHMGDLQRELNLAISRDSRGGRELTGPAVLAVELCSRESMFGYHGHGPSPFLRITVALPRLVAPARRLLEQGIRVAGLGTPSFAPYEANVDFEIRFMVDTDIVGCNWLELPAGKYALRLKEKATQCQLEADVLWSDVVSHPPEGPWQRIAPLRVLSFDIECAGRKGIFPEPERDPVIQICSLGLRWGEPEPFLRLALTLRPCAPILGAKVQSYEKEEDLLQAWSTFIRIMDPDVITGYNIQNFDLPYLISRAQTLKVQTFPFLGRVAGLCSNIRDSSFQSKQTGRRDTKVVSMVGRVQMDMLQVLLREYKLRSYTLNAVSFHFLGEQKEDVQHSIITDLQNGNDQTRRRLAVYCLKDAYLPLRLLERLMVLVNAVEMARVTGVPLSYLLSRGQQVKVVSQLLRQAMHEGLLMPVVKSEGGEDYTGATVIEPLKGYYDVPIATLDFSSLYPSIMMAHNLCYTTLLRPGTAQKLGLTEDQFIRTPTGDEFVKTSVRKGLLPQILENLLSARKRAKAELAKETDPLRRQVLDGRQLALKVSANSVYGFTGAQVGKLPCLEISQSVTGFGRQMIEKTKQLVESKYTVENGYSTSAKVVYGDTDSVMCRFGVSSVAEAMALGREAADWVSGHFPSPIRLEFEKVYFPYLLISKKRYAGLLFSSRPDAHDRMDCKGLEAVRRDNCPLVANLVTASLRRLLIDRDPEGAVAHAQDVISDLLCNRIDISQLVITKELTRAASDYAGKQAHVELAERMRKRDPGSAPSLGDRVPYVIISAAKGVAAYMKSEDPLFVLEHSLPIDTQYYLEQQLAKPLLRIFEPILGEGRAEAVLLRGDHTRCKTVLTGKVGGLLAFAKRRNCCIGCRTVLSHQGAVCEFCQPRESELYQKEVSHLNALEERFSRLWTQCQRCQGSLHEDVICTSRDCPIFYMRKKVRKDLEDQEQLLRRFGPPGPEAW
UniProt P12004: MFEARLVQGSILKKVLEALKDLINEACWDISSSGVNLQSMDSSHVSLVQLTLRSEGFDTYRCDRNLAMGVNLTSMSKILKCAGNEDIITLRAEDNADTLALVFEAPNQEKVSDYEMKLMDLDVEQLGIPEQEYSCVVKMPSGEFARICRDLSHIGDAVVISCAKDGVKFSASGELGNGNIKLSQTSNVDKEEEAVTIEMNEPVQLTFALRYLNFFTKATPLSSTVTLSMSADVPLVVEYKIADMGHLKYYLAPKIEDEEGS
UniProt P11387: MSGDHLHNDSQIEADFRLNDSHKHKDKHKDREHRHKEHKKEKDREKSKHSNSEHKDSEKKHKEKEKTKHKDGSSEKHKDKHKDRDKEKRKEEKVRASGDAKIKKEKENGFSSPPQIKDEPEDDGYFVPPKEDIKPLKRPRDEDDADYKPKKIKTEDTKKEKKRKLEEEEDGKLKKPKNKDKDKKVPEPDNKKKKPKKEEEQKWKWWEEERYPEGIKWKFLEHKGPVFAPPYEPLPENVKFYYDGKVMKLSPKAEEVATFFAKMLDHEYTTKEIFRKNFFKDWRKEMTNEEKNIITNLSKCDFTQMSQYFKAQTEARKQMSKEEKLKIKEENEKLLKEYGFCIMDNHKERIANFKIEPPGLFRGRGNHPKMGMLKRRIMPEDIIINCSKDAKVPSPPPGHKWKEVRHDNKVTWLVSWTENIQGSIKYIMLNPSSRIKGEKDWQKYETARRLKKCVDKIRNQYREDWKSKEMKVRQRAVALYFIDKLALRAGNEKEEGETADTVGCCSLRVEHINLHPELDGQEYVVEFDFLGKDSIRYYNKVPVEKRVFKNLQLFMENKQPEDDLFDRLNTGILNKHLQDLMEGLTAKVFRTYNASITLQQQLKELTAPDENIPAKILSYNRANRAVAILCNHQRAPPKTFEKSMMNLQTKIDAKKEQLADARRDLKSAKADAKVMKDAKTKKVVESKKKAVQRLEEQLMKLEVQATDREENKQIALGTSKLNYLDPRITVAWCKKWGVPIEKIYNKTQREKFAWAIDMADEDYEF

B1: UHRF1 (protein, UniProt Q96T88 1-793)
chain: MWIQVRTMDGRQTHTVDSLSRLTKVEELRRKIQELFHVEPGLQRLFYRGKQMEDGHTLFDYEVRLNDTIQLLVRQSLVLPHSTKERDSELSDTDSGCCLGQSESDKSSTHGEAAAETDSRPADEDMWDETELGLYKVNEYVDARDTNMGAWFEAQVVRVTRKAPSRDEPCSSTSRPALEEDVIYHVKYDDYPENGVVQMNSRDVRARARTIIKWQDLEVGQVVMLNYNPDNPKERGFWYDAEISRKRETRTARELYANVVLGDDSLNDCRIIFVDEVFKIERPGEGSPMVDNPMRRKSGPSCKHCKDDVNRLCRVCACHLCGGRQDPDKQLMCDECDMAFHIYCLDPPLSSVPSEDEWYCPECRNDASEVVLAGERLRESKKKAKMASATSSSQRDWGKGMACVGRTKECTIVPSNHYGPIPGIPVGTMWRFRVQVSESGVHRPHVAGIHGRSNDGAYSLVLAGGYEDDVDHGNFFTYTGSGGRDLSGNKRTAEQSCDQKLTNTNRALALNCFAPINDQEGAEAKDWRSGKPVRVVRNVKGGKNSKYAPAEGNRYDGIYKVVKYWPEKGKSGFLVWRYLLRRDDDEPGPWTKEGKDRIKKLGLTMQYPEGYLEALANREREKENSKREEEEQQEGGFASPRTGKGKWKRKSAGGGPSRAGSPRRTSKKTKVEPYSLTAQQSSLIREDKSNAKLWNEVLASLKDRPASGSPFQLFLSKVEETFQCICCQELVFRPITTVCQHNVCKDCLDRSFRAQVFSCPACRYDLGRSYAMQVNQPLQTVLNQLFPGYGNGR

Assays:
[1] = target: Fused in sarcoma (FUS) (human (endogenous in U-2 OS)) (UniProt P35637); assay: proximity ligation
[2] = target: Fused in sarcoma (FUS) (human (endogenous in U-2 OS)) (UniProt P35637); assay: co-IP
[3] = target: Fused in sarcoma (FUS) (human (endogenous in U-2 OS)) (UniProt P35637); assay: co-IP; remark: listed apart in the source

Row | Molecule | binding [1] | binding [2] | binding [3]
1 | DNA polymerase δ (POLδ or POLD1) (from UniProt P28340 1-1107) | binds | binds | 
2 | PCNA (from UniProt P12004 1-261) | binds | binds | 
3 | TOP1 (from UniProt P11387 1-765) |  | binds | 
4 | B1 |  |  | binds
